Results are given in words; binding and its absence hold for the method and conditions named. Some binding calls cover weakened binding; strength is not graded here.
How the values were obtained:
[1] = target: IL15-293 (ACZ-regulated membrane-bound IL15 linked to the CA2 (M1del, L156H) DRD) (human); assay: flow cytometry of transduced cord blood NK cells, stained with IL15Ra-Fc and anti-CD56 antibody
[2] = target: IL15-293 (ACZ-regulated membrane-bound IL15 linked to the CA2 (M1del, L156H) DRD) (human); assay: flow cytometry of transduced TIL, co-stained with anti-IL15 and IL15Ra-Fc (IL15+IL15Ra-Fc+ double positive population)
[3] = target: IL15-293 (ACZ-regulated membrane-bound IL15 linked to the CA2 (M1del, L156H) DRD) (human); assay: flow cytometry of transduced human T cells from mouse blood on day 25, stained with IL15Ra-Fc and fluorochrome conjugated anti-human IgG antibody
[4] = target: IL15-294 (constitutive membrane-bound IL15, variant B7-1 tail) (human); assay: as above
[5] = target: IL15-295 (ACZ-regulated membrane-bound IL15, variant B7-1 tail, linked to the CA2 (M1del, L156H) DRD) (human); assay: as above

Protein sequences, listed by entry. Tags and fused reporters are not part of them. Lines headed by an entry give the natural chain unless they say otherwise; changes in a name come on top.
UniProt Q13261: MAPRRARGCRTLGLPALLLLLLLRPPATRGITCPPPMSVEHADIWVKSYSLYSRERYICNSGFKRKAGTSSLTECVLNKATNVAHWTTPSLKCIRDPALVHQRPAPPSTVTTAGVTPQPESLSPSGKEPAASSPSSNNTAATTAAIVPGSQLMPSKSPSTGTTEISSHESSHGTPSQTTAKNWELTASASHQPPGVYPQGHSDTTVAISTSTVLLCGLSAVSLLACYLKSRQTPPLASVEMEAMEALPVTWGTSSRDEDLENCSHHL

Measured: binding

IL15Ra-Fc (recombinant protein comprised of extracellular domain of IL15Ra fused to human IgG1 Fc domain) (from UniProt Q13261 31-205) (Fc fusion)
binds: all assays above
